# Article PMC2731163
# Chains of the proteins cited; added tags and fusions are not shown.
# UniProt Q12778: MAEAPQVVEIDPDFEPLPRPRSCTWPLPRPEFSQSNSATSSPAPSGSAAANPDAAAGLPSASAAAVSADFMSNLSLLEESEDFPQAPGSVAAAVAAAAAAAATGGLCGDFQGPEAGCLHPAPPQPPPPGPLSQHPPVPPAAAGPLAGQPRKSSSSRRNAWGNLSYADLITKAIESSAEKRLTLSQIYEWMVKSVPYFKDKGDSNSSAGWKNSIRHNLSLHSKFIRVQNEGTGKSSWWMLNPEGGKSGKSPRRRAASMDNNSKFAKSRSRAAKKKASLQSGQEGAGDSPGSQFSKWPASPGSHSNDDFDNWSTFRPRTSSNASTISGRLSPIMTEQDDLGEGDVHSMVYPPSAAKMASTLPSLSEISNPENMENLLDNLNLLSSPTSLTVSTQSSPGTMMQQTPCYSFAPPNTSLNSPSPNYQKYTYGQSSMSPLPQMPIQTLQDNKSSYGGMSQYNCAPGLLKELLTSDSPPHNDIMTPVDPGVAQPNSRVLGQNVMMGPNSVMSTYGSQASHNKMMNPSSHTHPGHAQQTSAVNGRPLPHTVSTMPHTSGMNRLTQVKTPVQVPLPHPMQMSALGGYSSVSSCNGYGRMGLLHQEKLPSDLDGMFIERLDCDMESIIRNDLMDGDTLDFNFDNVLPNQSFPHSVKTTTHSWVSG
# UniProt P31270: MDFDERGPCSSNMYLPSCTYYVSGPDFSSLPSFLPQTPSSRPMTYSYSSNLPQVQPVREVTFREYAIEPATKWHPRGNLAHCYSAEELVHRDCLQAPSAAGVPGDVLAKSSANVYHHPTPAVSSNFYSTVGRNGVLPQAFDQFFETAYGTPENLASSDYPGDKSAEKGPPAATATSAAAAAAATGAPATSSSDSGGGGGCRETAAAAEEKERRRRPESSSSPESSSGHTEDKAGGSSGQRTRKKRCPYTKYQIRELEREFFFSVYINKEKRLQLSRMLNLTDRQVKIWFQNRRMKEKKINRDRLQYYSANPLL
# No constants are given. Whether binding was seen depends on the method and setting. In cells and extracts the contact can be indirect. Some results given as binding are weak or reduced against the parent protein; the word gives no strength.
# Molecular target: N-terminal Flag tagged human FOXO1A (human) (UniProt Q12778)
# Experiment: co-IP; HeLa cells co-transfected with HoxA11-V5/His and Flag-FOXO1A (or empty pcDNA3.1(+)); whole cell lysate (420 mM NaCl, 1% Triton X-100) on M2 anti-FLAG agarose beads overnight at 4°C; without or with 50 U DNase and 2.5 µg RNase for 60 min at room temperature; washed with 10 mM Hepes, 150 mM NaCl, 0.5% Triton X-100; Western blot with anti-V5-HRP, re-probed with anti-Flag-HRP
substance,measurement,value
HoxA11-V5/His fusion protein (from UniProt P31270 1-313),binding,binds
